The nature of the series: general procedure: Fmoc solid-phase peptide synthesis; Rink MBHA resin. The conditions noted are these: whole synthesis, scale of the general procedure 0.5 mmol, acetate, one disulfide bridge, sequence written open.

The values below come from patent US9394341 (dated 2016).

“Mpr-Harg-Gly-Asp-Trp-Pro-Cys-NH2 (X—Y-Trp-Pro-Cys)”: the “final purity (method not given)” value is reported as 99.8%. The same substance gave an isolated yield (total yield) of 61.3%.
